# In all, about 33,000 sequences were measured (“E-score (-0.5 to 0.5)”: median about -0.0059, highest 2% from about 0.26 on). The list shows a part of the results.
# Target: T1, Cin5 (UniProt P40917)
# T1 sequence: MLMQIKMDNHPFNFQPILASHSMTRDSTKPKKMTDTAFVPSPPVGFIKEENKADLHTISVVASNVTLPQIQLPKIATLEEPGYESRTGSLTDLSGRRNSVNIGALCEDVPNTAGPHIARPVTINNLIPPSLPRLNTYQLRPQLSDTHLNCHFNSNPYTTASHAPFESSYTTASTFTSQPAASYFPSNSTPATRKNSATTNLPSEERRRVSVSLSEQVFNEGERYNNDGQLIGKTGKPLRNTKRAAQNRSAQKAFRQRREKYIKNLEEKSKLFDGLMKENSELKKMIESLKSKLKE
# Test: PBM E-score (8-mer binding enrichment) (E-score (-0.5 to 0.5)); higher = stronger / more preferred TF binding
# Settings: protein concentration: 100 nM; construct: GST-full length
# In short: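 E-scores (a modified Wilcoxon-Mann-Whitney statistic) were assigned by the Universal PBM Analysis Suite to every ungapped eight-base word pooled with its reverse complement. The input came from universal all-10-mer Agilent arrays made double-stranded by primer extension and probed with GST-tagged yeast transcription factors at about 100-200 nM. Fluorescent anti-GST detected bound protein, and masliner normalised the scans.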
row,Sequence,PBM E-score
1,GACGCCCC,-0.096
2,GTAGATAA,0.28
3,TCCTCCGA,-0.262
4,ATATCAGA,0.0931
5,CGTGTTTC,-0.139
6,TCGCCGAA,-0.0578
7,GCTTGAAC,0.0677
8,CATCAGAG,0.0228
9,CCGGCGGA,0.115
10,ACCGATAG,0.108
11,CCGGACCG,-0.0876
12,TACAAAGA,0.121
13,AGCAATCC,-0.161
14,ACGTTGTA,-0.0326
15,GGGACACC,-0.238
16,CAAGTGCC,-0.106
17,CTCGGGAC,-0.181
18,ACGGTGCA,-0.139
19,ACTGGGCG,-0.257
20,TACTGTGA,0.154
21,AGACAGTC,-0.157
22,AACTGAAG,0.109
23,TCAAGGCA,-0.132
24,GCAATGGC,-0.16
25,CCTCGGAG,-0.0962

row,Sequence,PBM E-score
1,AGCCAGAA,-0.0437
2,CAGGATAA,0.175
3,AGGTCCAA,-0.199
4,AACGGATT,0.238
5,CAATATTC,0.102
6,CCAGGAAC,-0.219
7,ATGCGGGG,-0.128
8,CTCATTTA,0.185
9,CTGATTTC,-0.00928
10,CAGGGCCA,-0.257
11,ACGATCCT,-0.0248
12,AACGCTAT,0.0739
13,CTCAGCCA,-0.0301
14,TAATAAAA,0.235
15,GCCAAAAC,-0.0264
16,CACACCCG,-0.0966
17,CGAATGCG,0.0975
18,ACTGTCCC,0.058
19,AAGAGGGC,-0.205
20,TAGTCGCA,0.0555
21,CAAATTAG,0.122
22,AAATGTTA,0.0773
23,GGCTGTAC,-0.237
24,ATCGACCC,0.0846
25,GGGCTGCA,-0.0765

row,Sequence,PBM E-score
1,AAGGATGG,-0.106
2,GGTAATGA,0.153
3,AGGTCAAC,-0.00951
4,CCTGGCCA,-0.0925
5,GCTAGAAC,-0.044
6,ATCGTCGA,-0.0681
7,GATGCGGA,-0.146
8,CGTCCGCC,-0.209
9,GGGTGCAC,-0.221
10,CCAGATCA,0.0639
11,CCTGGAAC,-0.114
12,ATAATACC,0.258
13,GTCTCTCA,-0.139
14,CAGGTACC,-0.324
15,AGTCTGCG,-0.343
16,GAACGGGC,-0.234
17,CCTCCTCG,-0.172
18,GAAGCGTC,-0.169
19,TATGGGAA,0.00901
20,AAAAACGA,0.223
21,ACTACAAC,0.21
22,CACGCAGA,0.101
23,TCTCCGCA,-0.132
24,AGACCGAT,-0.0832
25,CACATGGG,0.04

row,Sequence,PBM E-score
1,AGCATCCC,-0.17
2,GTTGGGGA,-0.0161
3,AGTGGGTA,0.0535
4,CCTCCCGC,-0.0813
5,ACAGGACC,-0.106
6,ACTTGTTC,-0.0464
7,GCGAGACC,-0.127
8,GCTGACCA,0.216
9,GAAGAACC,-0.0676
10,AATGAATT,0.189
11,AGCACGAG,0.0365
12,GGTATCAA,0.00165
13,CGAGAACG,0.0225
14,ATGTCGCG,0.0243
15,AGGGATCC,-0.173
16,CGGAAAAG,-0.00159
17,CTAGAGCC,-0.194
18,CCACAACC,0.106
19,AACCAGCA,-0.129
20,AAGAGAGT,-0.0939
21,GCGTGAGA,0.167
22,ATTTTTGC,0.101
23,ATTGTCGG,0.0241
24,AACCTTTC,-0.093
25,GCGATTAC,0.264

# An excerpt of these results, tab-delimited.
row	Sequence	PBM E-score
8	CATCAGAG	0.0228
12	TACAAAGA	0.121
15	GGGACACC	-0.238
2	CAGGATAA	0.175
16	GAACGGGC	-0.234
3	AGTGGGTA	0.0535
22	ATTTTTGC	0.101

# Remaining list, next part:

row,Sequence,PBM E-score
1,CATCCTGC,-0.0103
2,GACCGCGA,-0.129
3,CCACTCAC,0.0919
4,GATGCATA,0.137
5,ACTGGTGA,-0.114
6,CCCCCCCA,-0.464
7,CCTTAATA,0.149
8,CACTCTCC,-0.0769
9,CAAGATAG,0.0267
10,GGTACAGA,0.056
11,AAGCGCGG,0.0148
12,ATGAGGAA,0.118
13,CCAAGCGA,-0.0596
14,GTATGAGA,0.144
15,CATGCGGC,-0.0851
16,ATAGCAAA,0.0206
17,GCAAGCCC,-0.05
18,ATACTGCG,-0.0234
19,AGTCACAA,0.113
20,CATGGTCC,-0.195
21,CCCGACAC,-0.15
22,CAAGTTGG,0.138
23,ATCCCATA,0.0489
24,ACAAATTA,0.269
25,ATGGGTCA,-0.00802

# Reprinted at random: 6 records from the list
row,Sequence,PBM E-score
3,CCACTCAC,0.0919
15,CATGCGGC,-0.0851
20,CATGGTCC,-0.195
2,GACCGCGA,-0.129
19,AGTCACAA,0.113
12,ATGAGGAA,0.118

# Next entries.

row,Sequence,PBM E-score
1,AGTGCATA,-0.134
2,ATCTCCCC,-0.0993
3,CAACCATC,-0.138
4,GGTTCGAC,-0.0557
5,CAGAGAGC,-0.193
6,AACGGGCC,-0.0743
7,ACTACGCA,-0.169
8,AATGTGTC,0.181
9,CCATCCCA,-0.0377
10,TGACACAA,0.153
11,CGTTCTCA,-0.00334
12,CCCTTAGA,-0.0174
13,AGAATTAC,0.098
14,GCTAGAAA,0.158
15,CCAGACCA,-0.0619
16,GAATGTCA,0.0882
17,CTCACACA,-0.00376
18,ATGGGAGC,-0.0315
19,TAGCCATA,-0.0697
20,ACGCTAGC,-0.235
21,GATGCGCC,-0.0294
22,AAGAATTG,0.215
23,CAACTGGA,-0.0777
24,GACACACC,0.0393
25,TGAGCCAA,0.0379

row,Sequence,PBM E-score
1,CTATGCAC,-0.0651
2,ACCCAGTA,-0.146
3,AACCGTGG,-0.17
4,CCGCGCGC,0.0301
5,GCATAGAA,0.0234
6,CAAGCGAG,0.158
7,CATCCCCA,0.0398
8,AATAGAGA,-0.00888
9,ACGAACGG,0.0374
10,GTGGAGTA,0.0199
11,ACGTCTCG,-0.0923
12,CATTAATA,0.187
13,AGAGTCCC,-0.216
14,ATGTGCAC,-0.0957
15,AAGCAGCT,0.00585
16,CTGCTGCC,-0.124
17,ATCTCTTA,0.0999
18,GGTAGACA,0.0358
19,GTACATAA,0.189
20,TGTCGACA,-0.0626
21,AGGTGAAG,-0.0765
22,GCCGCCCC,-0.114

# — the supplement of paper PMC3334620
